# Results: PubChem BioAssay AID761 (NMMLSC, 2007)
# Chains of the proteins cited; added tags and fusions are not shown.
# UniProt P60953, whole entry: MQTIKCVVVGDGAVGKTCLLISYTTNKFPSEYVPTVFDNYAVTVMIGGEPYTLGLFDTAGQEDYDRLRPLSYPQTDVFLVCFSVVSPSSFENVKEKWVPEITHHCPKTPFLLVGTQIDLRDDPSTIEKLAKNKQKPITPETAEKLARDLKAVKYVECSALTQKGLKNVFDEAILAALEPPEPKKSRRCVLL
# Out of some 190,000 compounds screened, about 400 (0.21%) were called active. The source calls these results inconclusive, neither active nor inactive.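 How the source made its calls: active means percent activity GTP binding at least 20 points away from the 100% baseline, either down as inhibitor or up as activator; inconclusive means compound flagged as likely green fluorescent from well-wide comparison; inactive means the rest.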
# Target: Cell division control protein 42 homolog (Homo sapiens) (UniProt P60953)
# Experiment: modulators of GTP binding to wildtype Cdc42, primary screen, biochemical, multiplex bead flow cytometry, Bodipy-GTP (AID 761);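 further: median bead fluorescence of bound Bodipy-FL-GTP at 100 nM; 0% = excess unlabeled GTP control and 100% = no compound control; below 100% means less GTP binding so inhibitor and above means activator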
# Conditions: GST-Cdc42 beads, at 10 µM, actives lie on both sides
row,SMILES,percent activity (GTP binding)
1,CC(C)c1ccc(OP(C)(=O)Nc2ccc(SC(F)(F)F)cc2)cc1 (stereo unspecified),inconclusive: 95%
